Measurements: patent US12037414 (dated 2024)

Tests used:
[1] = solution-phase peptide synthesis; T3P/DIPEA in DMF; settings: coupling step
[2] = general procedure: solution-phase peptide synthesis; T3P/DIPEA in DMF; settings: late stage modification step

Substance Boc-D-Arg-DMT-Lys(Boc)-Phe-NH2 has a step yield ([1]; run 1) of 17.5% and a step yield ([1]; run 2) of 22.2%.

For “D-arginyl-2,6-dimethyl-L-tyrosyl-L-lysyl-L-phenylalaninamide”, the step yield [2] was 99%, the “purity (crude or final not stated)” value ([2]; HPLC) was 98.0% and the step yield ([2]; corrected yield) was 88% corrected yield.
